Source: patent publication US20220289791A1, “LACTATE DEHYDROGENASE INHIBITOR POLYPEPTIDES FOR USE IN THE TREATMENT OF CANCER” (UNIVERSITÉ CATHOLIQUE DE LOUVAIN, priority 2019, published 2022)
Not every detail of the peptide structures is certain; ends, links or a residue may be inferred. Where a SMILES comes first, the peptide text is derived from it. Bridges are numbered along the chain shown (N, C = ends).

By UniProt entry, the sequences of proteins in these tests, tags left out. Where a name states a change or a piece, a line headed by the entry shows the natural chain unless it says otherwise.
UniProt P07195: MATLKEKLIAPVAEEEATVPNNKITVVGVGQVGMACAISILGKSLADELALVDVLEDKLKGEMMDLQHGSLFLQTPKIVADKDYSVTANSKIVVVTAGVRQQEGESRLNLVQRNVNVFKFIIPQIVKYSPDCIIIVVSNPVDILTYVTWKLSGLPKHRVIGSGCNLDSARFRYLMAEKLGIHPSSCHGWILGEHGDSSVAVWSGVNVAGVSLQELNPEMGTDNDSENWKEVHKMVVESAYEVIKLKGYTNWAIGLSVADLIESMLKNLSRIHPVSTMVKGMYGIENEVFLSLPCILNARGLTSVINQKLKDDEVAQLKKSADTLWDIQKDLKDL

Experiments:
[1] = target: truncated LDHB (LDHBtr) (Homo sapiens, UniProt P07195); assay: Microscale thermophoresis (MST), Example 2, macrocycles against truncated LDHB; type: binding
Procedure: MST measurements were performed on a Nanotemper Monolith NT.115 instrument (NanoTemper Technologies®) using Red-dye-NHS fluorescent labeling. Each LDH sample, purified to homogeneity, was labeled with the Monolith Red-dye-NHS 2nd generation labeling dye (NanoTemper Technologies®), according to the manufacturer's instructions. Measurements were performed in 50 mM sodium phosphate, pH 7.6, and 100 mM NaCl containing 0.05% Tween-20 in premium-treated capillaries (NanoTemper Technologies®). The final concentrations of either labeled protein in the assay were 100 nM. The ligands (NADH and peptides) were titrated in 1:1 dilutions following manufacturer's recommendations. All binding reactions were incubated for 5 min at room temperature after loading into capillaries. Experiments were performed in triplicates using 40% LED power, medium MST power, Laser On time 20 s and Laser Off time 3 s. Peptides were evaluated for their thermophoretic pattern, and Kd's were extracted from raw data at a 10 to 20 s MST on time according to manufacturer's instructions. Regarding interaction of 7 with LDH5, Kd was extracted from the raw fluorescence. A denaturation test was performed accordingly to manufacturer recommendation and excluded any nonspecific spectral interaction between 7 and the red-dye. […]

[2] = target: LDHBtr (Homo sapiens, UniProt P07195); assay: NMR WaterLOGSY binding screening; conditions: for Binding using WaterLOGSY (800 μM): linear peptides at 800 μM, LDHBtr 15 μM
Procedure: All experiments were acquired on a Bruker Ascend Avance III 600 MHz equipped with a broadband cryoprobe (Bruker® GmBH, Germany)
NMR WaterLOGSY was performed on samples prepared in 10% D2O buffer containing 50 mM sodium phosphate buffer, pH 7.6 and 100 mM NaCl. The concentration of LDH subunits was 15-20 μM. Ligand binding was detected using a NMR WaterLOGSY ephogsygpno.2 advance-version sequence with a […]. Water signal suppression was achieved using excitation sculpting scheme and a 50 ms spinlock was used to suppress protein background signal. For each experiment, 512 scans were collected to yield a 16K points FID. NMR WaterLOGSY intensity was corrected by plotting the intensity difference of the ligand NMR WaterLOGSY spectra recorded in the presence and absence of protein.
For NMR WaterLOGSY screening experiments a correction factor was applied to account for slight concentration variation between samples. To do so, 8 scans 1H NMR spectra with 50 ms spinlock were recorded before NMR WaterLOGSY experiments. The intensity ratio of the aliphatic region (0.700 ppm to 0.955 ppm) with and without protein was used as a correction factor to compare the NMR WaterLOGSY intensity of the polypeptides of interest with and without LDH subunits. An arbitrary threshold of 0.1, corresponding to a 10% decrease in the NMR WaterLOGSY signal intensity between the spectra with and without protein, was set to discriminate between binders and non-binders.

Structure (SMILES)	MST binding to LDHBtr [1]	NMR WaterLOGSY signal / saturation transfer [2]	Binding using WaterLOGSY (800 μM) [2]
CC[C@H](C)[C@@H]1NC(=O)[C@H](CC(C)C)NC(=O)[C@@H](NC(=O)[C@H](CCC(=O)O)NC(=O)[C@H](CCCCN)NC(=O)[C@H](CC(C)C)NC(=O)[C@@H](NC(=O)[C@H](C)N)[C@@H](C)O)CCCCNC1=O [MP12, ATLKEKLI] (H-ATLKEKLI; lactam 6-C)	no appreciable binding	no appreciable binding	–
CC[C@H](C)[C@H](NC(=O)[C@H](C)NC(=O)[C@H](CCCCN)NC(=O)[C@H](CCC(=O)O)NC(=O)[C@H](CCCCN)NC(=O)[C@H](CC(C)C)NC(=O)[C@@H](NC(=O)[C@H](C)N)[C@@H](C)O)C(N)=O [LB8-A6, ATLKEKAI] (H-ATLKEKAI-NH2)	–	–	− (non-binders)
CC[C@H](C)[C@H](NC(=O)[C@H](CC(C)C)NC(=O)[C@H](CCCCN)NC(=O)[C@H](CCC(=O)O)NC(=O)[C@H](CCCCN)NC(=O)CNC(=O)[C@@H](NC(=O)[C@H](C)N)[C@@H](C)O)C(N)=O [LB8-G3, ATGKEKLI] (H-ATGKEKLI-NH2)	no appreciable binding	–	− (non-binders)
